{"source": "patent US20210145730A1", "about": "“PROCESS FOR PREPARING AN ORAL DISINTEGRATING DOSAGE FORM” (Zeenar Enterprises Pty Ltd, priority 2017, published 2021)", "test": "SAXS liquid crystalline phase formation for mixes of GMO and another ingredient immersed in PBS buffer (Example 1)", "type": "physicochemical", "method": "The samples were then mixed via a roller mixer at ˜10 RPM at 40° C. for at least 3 days. One week prior to SAXS experiment, 100 mg samples were loaded into a transparent polystyrene 96 well plate (Nunc™) and immersed in 200 μL of PBS buffer (pH 6.8). The samples were stored away from light at ambient temperature, to allow the samples to reach equilibrium. The SAXS/WAXS beamline at Australian Synchrotron, Melbourne, Australia was used to determine the liquid crystalline nanostructure in the samples. A custom-designed plate holder was used to mount the samples plate directly onto the SAXS/WAXS beamline. Scans were automated using a pre-loaded set of position variables based on the well positions within the plate, the exposure time was 5 sec. Data were obtained at ambient temperature (˜22° C.). […] The 2-D diffraction images were recorded on a Pilatus 1M detector and radially integrated using the in-house software “ScatterBrain”.", "note": "At least one structure is not confirmed: it was looked up by name or label, or the drawing left a doubt.", "data": [{"smiles": "COc1ccc(O)c(C(C)(C)C)c1", "note": "[Butylated hydroxy anisole (BHA), Butylated hydroxy anisole]", "values": [{"measurement": "Phase structure", "setting": "Concentration in GMO 10%", "result": "H2"}, {"measurement": "Phase structure", "setting": "Concentration in GMO 15%", "result": "H2"}, {"measurement": "Phase structure", "setting": "Concentration in GMO 20%", "result": "H2"}, {"measurement": "Phase structure", "setting": "Concentration in GMO 35%", "result": "L2"}, {"measurement": "Phase structure", "setting": "Concentration in GMO 50%", "result": "L2"}]}]}
